Experimental data published in the supplement of paper PMC10849652.
Some of the results follow.

By UniProt entry, the sequences of proteins in these tests, tags left out. Where a name states a change or a piece, a line headed by the entry shows the natural chain unless it says otherwise.
UniProt Q969Q5: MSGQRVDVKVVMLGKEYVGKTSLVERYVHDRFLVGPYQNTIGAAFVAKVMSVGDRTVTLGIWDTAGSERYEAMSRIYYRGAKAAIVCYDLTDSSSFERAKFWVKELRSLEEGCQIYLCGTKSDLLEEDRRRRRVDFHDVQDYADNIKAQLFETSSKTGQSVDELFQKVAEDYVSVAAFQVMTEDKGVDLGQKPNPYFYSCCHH
UniProt Q06609, whole entry, looked up: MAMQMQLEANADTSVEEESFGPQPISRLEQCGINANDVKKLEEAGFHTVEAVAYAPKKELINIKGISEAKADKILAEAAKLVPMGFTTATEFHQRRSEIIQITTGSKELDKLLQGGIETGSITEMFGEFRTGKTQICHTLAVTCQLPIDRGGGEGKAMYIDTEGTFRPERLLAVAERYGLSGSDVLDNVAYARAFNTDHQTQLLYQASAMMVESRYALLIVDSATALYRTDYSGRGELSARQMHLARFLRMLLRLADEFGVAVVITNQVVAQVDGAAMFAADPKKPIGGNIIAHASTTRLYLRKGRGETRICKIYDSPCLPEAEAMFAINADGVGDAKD
UniProt O60671: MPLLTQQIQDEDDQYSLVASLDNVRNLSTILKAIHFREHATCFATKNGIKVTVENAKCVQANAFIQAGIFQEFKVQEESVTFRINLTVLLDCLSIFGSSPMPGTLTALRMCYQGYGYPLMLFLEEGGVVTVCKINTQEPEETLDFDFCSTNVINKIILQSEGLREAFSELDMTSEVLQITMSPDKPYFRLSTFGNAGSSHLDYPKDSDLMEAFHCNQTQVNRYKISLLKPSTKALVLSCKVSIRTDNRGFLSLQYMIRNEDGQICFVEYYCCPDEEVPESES
UniProt O15315: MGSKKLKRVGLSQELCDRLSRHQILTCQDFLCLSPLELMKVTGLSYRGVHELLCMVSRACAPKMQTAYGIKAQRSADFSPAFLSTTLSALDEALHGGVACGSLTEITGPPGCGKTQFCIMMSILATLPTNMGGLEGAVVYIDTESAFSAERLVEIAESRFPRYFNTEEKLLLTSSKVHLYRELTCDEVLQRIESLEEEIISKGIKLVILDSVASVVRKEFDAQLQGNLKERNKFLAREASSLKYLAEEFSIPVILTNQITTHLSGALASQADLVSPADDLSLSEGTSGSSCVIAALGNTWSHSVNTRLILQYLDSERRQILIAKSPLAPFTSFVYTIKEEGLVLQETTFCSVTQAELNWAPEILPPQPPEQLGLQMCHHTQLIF
UniProt Q6ZRP7: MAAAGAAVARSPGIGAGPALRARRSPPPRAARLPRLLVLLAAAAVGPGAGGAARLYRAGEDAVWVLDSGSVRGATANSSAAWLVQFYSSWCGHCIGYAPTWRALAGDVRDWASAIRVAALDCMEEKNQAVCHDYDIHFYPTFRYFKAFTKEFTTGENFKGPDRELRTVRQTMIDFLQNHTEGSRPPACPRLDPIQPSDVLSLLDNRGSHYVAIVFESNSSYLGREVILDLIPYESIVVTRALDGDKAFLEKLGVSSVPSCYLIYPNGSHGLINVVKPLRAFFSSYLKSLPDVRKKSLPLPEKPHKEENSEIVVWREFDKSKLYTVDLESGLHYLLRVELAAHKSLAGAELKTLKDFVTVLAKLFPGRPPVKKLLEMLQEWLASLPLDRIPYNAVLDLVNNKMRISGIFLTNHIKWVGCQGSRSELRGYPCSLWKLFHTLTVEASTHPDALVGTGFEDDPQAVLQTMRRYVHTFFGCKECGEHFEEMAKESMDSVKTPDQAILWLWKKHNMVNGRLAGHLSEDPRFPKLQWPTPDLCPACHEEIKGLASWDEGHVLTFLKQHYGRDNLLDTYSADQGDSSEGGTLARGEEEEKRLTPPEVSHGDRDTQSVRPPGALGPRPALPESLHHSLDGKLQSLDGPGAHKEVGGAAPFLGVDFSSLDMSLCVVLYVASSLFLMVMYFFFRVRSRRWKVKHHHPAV
UniProt Q96C36: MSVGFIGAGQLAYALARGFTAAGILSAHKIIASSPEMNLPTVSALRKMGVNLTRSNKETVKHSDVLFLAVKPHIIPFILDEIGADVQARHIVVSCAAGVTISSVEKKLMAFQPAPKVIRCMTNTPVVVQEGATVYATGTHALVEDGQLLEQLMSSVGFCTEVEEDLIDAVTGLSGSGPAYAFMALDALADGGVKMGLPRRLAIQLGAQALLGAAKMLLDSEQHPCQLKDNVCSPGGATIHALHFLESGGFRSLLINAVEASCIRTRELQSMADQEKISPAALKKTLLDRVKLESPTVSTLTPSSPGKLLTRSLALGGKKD
UniProt Q9UL26: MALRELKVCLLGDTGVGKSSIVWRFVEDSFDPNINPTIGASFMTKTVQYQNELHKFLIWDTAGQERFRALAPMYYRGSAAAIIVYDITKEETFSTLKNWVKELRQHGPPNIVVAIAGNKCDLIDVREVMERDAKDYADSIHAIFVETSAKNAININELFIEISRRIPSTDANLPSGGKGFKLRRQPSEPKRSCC
UniProt Q9UL25: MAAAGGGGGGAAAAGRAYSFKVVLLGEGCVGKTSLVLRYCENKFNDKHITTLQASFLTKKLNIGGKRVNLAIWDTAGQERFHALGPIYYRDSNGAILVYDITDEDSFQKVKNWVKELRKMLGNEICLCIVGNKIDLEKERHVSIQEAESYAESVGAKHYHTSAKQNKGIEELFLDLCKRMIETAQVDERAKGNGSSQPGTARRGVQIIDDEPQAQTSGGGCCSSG
UniProt Q15286: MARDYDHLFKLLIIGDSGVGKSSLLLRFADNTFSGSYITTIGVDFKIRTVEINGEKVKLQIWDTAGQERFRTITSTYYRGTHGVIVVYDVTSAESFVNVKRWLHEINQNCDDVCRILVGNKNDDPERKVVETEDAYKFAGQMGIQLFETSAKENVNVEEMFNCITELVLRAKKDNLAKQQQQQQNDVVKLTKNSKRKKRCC
UniProt O43502: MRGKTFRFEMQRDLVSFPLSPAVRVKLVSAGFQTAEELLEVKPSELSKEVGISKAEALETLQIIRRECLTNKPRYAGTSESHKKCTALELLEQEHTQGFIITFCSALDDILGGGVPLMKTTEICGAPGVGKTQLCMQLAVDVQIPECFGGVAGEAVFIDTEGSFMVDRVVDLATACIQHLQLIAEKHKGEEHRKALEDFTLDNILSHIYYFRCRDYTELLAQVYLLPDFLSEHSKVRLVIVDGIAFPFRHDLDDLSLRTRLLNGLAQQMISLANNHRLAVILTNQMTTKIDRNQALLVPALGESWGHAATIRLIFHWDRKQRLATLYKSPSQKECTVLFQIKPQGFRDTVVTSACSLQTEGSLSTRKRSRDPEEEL
UniProt P61224: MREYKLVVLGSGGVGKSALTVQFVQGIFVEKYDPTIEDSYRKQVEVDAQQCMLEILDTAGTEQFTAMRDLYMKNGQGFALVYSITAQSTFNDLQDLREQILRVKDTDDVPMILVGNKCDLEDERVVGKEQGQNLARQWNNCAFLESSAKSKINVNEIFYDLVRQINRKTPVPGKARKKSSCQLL
UniProt P78406: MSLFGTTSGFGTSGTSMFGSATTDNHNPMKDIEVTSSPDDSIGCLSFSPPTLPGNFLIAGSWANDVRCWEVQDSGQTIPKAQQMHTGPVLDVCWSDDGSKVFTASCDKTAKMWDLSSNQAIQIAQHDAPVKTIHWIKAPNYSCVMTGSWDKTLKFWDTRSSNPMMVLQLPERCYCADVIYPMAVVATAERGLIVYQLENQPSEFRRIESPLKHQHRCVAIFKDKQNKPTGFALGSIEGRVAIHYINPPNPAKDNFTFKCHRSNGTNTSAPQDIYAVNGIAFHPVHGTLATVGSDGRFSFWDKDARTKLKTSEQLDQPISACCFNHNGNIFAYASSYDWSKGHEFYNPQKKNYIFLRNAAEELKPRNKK
UniProt Q15274: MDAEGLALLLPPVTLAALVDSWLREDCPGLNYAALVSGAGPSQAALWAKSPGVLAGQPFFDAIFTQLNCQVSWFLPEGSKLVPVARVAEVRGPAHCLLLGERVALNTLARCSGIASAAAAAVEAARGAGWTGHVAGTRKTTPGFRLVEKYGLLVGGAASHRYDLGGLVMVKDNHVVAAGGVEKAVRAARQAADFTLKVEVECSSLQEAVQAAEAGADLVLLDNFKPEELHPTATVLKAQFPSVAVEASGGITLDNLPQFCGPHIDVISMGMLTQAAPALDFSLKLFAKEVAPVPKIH
UniProt Q9NP72: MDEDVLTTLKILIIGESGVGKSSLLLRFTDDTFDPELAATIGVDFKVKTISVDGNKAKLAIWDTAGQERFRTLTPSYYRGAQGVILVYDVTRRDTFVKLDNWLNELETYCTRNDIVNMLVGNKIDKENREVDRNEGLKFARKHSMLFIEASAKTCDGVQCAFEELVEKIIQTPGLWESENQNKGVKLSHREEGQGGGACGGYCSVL
UniProt Q9Y3P9: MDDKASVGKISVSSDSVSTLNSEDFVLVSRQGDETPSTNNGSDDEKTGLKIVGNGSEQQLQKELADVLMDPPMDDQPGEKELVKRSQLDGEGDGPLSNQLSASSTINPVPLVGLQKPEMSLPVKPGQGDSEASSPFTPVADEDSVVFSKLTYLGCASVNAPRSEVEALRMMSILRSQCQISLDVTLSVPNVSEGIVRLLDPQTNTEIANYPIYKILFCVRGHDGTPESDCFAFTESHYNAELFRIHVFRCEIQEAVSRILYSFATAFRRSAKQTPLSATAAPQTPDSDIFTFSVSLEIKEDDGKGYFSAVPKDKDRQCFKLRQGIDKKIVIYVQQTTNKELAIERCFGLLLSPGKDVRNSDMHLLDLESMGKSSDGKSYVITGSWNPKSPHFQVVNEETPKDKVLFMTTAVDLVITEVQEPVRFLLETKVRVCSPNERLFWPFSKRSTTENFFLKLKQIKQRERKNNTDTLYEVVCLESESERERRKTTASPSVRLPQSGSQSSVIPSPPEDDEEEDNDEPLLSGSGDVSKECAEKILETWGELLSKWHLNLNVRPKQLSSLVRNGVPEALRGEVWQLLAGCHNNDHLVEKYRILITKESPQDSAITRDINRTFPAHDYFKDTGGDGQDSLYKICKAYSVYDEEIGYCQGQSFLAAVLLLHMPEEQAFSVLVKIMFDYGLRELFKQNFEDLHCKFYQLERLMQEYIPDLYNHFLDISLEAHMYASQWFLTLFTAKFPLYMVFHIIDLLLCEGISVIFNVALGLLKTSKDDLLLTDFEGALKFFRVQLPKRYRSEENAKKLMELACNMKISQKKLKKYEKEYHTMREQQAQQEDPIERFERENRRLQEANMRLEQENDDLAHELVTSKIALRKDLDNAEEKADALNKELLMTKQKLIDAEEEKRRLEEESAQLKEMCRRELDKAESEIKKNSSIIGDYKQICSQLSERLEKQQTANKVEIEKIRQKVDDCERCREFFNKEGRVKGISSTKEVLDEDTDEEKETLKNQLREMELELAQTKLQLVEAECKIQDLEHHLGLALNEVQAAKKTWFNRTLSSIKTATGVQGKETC
UniProt Q9BXR0: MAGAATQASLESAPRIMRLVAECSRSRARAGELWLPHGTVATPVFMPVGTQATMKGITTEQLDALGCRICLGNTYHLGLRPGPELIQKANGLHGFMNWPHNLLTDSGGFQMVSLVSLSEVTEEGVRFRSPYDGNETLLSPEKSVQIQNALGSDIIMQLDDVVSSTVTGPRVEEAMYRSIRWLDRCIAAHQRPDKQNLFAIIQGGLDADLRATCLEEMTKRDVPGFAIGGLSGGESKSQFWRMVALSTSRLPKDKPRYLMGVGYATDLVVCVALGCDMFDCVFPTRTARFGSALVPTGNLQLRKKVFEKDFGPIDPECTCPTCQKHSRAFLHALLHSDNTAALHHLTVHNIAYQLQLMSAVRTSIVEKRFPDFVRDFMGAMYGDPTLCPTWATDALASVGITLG
UniProt Q9H0R6: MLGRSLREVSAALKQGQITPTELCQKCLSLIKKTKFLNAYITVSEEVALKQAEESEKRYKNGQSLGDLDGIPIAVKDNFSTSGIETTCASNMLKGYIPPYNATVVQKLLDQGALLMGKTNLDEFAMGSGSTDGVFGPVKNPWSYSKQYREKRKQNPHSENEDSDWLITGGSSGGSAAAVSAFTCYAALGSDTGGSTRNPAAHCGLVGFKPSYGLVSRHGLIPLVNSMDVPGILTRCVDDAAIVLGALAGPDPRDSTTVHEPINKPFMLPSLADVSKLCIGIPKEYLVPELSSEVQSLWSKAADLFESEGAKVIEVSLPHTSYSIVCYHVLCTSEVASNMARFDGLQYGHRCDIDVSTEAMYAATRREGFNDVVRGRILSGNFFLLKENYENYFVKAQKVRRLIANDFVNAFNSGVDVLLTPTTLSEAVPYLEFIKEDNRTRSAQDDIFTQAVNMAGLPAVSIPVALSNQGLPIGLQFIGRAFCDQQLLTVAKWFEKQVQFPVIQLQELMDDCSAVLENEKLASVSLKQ
UniProt P11234: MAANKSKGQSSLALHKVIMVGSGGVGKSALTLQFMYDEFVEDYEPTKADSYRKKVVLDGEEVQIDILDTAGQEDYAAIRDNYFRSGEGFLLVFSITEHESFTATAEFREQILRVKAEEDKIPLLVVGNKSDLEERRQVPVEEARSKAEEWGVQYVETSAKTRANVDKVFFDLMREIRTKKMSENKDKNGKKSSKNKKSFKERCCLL

Experiments:
Experiment in all cases: log2 fold change, soluble protein after heating vs DMSO (PISA); higher = thermal stabilisation; K562 lysate, 10 uM; active = over 0.2 and 3.5 SD of the protein, either way, in both replicates (recomputed)
[1] = compound: C#Cc1cccc(Nc2ncnc3cc(OCCOC)c(OCCOC)cc23)c1 [erlotinib]
Outline: (§1)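 Quantification was by TMTpro 16plex LC-MS/MS with equalised channel sums, applied to the supernatant after 21,000xg for 90 min. Samples were crude K562 extract at 1 mg/mL protein in PBS pH 7.4 with 1 mM MgCl2, treated with 10 μM compound for 30 min, heated for 3 min across 48°C-58°C, pooled and brought to 0.5% NP-40 at 4°C. Values are log-two fold changes in thermal stability relative to solvent controls, from duplicates.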

[2] = compound: C/C(=N\NC(=O)C1=CC(=CC=C1)S(=O)(=O)N2CCOCC2)/C3=C(C=CC(=C3)Cl)O
Outline: as §1

[3] = compound: C1=CC(=CC=C1C2=NC3=C(N2)C=C(C=C3)C(=O)N)OC4=CC=C(C=C4)Cl
Outline: as §1

[4] = compound: C1=CC2=C(C=CC(=C2)/C=C\3/C(=O)NC(=NCC4=CC=CS4)S3)N=C1
Outline: as §1

[5] = compound: C1=CC2=NC=CN=C2C=C1/C=C/3\C(=O)NC(=O)S3
Outline: as §1

[6] = compound: C1=CC=C(C=C1)C2=NC(=C(N2)C3=CC=NC=C3)C4=CC(=C(C=C4)Cl)O
Outline: as §1

[7] = compound: C1=CC=C2C(=C1)C3=NNC4=CC=CC(=C43)C2=O
Outline: as §1

[8] = compound: C1CCN(C1)C(=O)NC2=CC=CC(=C2)NC3=NC=C(C(=N3)NCCC4=CN=CN4)Br
Outline: as §1

[9] = compound: C1CN(CCC1(CC2=CC=C(C=C2)Cl)N)C3=NC=NC4=C3C=CN4
Outline: as §1

[10] = compound: C1COCCN1CCN2C3=CC=CC=C3N=C2NC(=O)C4=CC(=CC=C4)[N+](=O)[O-] [IRAK-1-4 Inhibitor I]
Outline: as §1

Measured: log2 fold change

RAB24 (UniProt Q969Q5)
inactive: [1] -0.02 | [2] -0.044 | [3] 0.051 | [4] -0.033 | [5] 0.029 | [6] 0.015 | [7] -0.006 | [8] -0.03 | [9] 0.017 | [10] -0.025

RAD51 (UniProt Q06609)
inactive: [1] 0.013 | [2] 0.053 | [3] -0.029 | [4] 0.08 | [5] -0.055 | [6] 0.068 | [7] -0.027 | [8] -0.007 | [9] 0.032 | [10] -0.01

RAD1 (UniProt O60671)
inactive: [1] 0.054 | [2] 0.034 | [3] -0.014 | [4] -0.023 | [5] 0.025 | [6] 0.027 | [7] -0.016 | [8] -0.008 | [9] 0.058 | [10] -0.003

RAD51B (UniProt O15315)
inactive: [1] 0.054 | [2] -0.191 | [3] -0.005 | [4] 0.089 | [5] 0.176 | [6] -0.079 | [7] 0.054 | [8] 0.014 | [9] 0.11 | [10] -0.004

QSOX2 (UniProt Q6ZRP7)
inactive: [1] -0.016 | [2] -0.015 | [3] -0.019 | [4] 0.025 | [5] 0.042 | [6] -0.026 | [7] -0.064 | [8] -0.034 | [9] 0.014 | [10] 0.023

PYCR2 (UniProt Q96C36)
inactive: [1] -0.013 | [2] 0.014 | [3] 0.011 | [4] -0.005 | [5] -0.013 | [6] 0.003 | [7] -0.04 | [8] 0.007 | [9] 0.01 | [10] 0.031

RAB22A (UniProt Q9UL26)
inactive: [1] -0.02 | [2] 0.035 | [3] 0.022 | [4] 0.004 | [5] -0.012 | [6] -0.041 | [7] -0.023 | [8] 0.011 | [9] 0.013 | [10] 0.019

RAB21 (UniProt Q9UL25)
inactive: [1] 0 | [2] -0.008 | [3] 0.015 | [4] 0.02 | [5] 0.02 | [6] -0.028 | [7] -0.034 | [8] 0.026 | [9] 0.012 | [10] 0.045

RAB35 (UniProt Q15286)
inactive: [1] -0.045 | [2] 0.008 | [3] 0.035 | [4] 0.006 | [5] -0.043 | [6] 0.01 | [7] -0.028 | [8] -0.014 | [9] 0 | [10] -0.056

RAD51C (UniProt O43502)
inactive: [1] 0 | [2] -0.053 | [3] 0.023 | [4] -0.074 | [5] -0.003 | [6] 0.001 | [7] -0.004 | [8] 0.017 | [9] 0.02 | [10] -0.051

QKI (UniProt Q96PU8)
inactive: [1] -0.023 | [2] -0.018 | [3] -0.001 | [4] -0.005 | [5] 0.012 | [6] -0.029 | [7] 0.012 | [8] 0.005 | [9] -0.034 | [10] 0.027

QARS (UniProt P47897)
inactive: [1] 0.024 | [2] 0.054 | [3] -0.024 | [4] 0.027 | [5] 0.009 | [6] 0.011 | [7] -0.042 | [8] -0.006 | [9] 0.012 | [10] -0.003

RAP1B (UniProt P61224)
inactive: [1] -0.017 | [2] -0.085 | [3] 0.024 | [4] 0.016 | [5] -0.031 | [6] 0.006 | [7] -0.014 | [8] -0.033 | [9] -0.004 | [10] 0.014

RAE1 (UniProt P78406)
inactive: [1] 0.045 | [2] -0.036 | [3] 0.014 | [4] 0.046 | [5] 0.012 | [6] -0.021 | [7] -0.007 | [8] -0.019 | [9] 0.033 | [10] -0.024

RAF1 isoform 2 (UniProt P04049)
inactive: [1] -0.011 | [2] -0.033 | [3] -0.016 | [4] -0.072 | [5] -0.113 | [6] -0.009 | [7] 0.007 | [8] 0.036 | [9] -0.044 | [10] -0.058

PYROXD1 (UniProt Q8WU10)
inactive: [1] 0.077 | [2] -0.108 | [3] 0.018 | [4] 0.002 | [5] -0.034 | [6] -0.098 | [7] -0.062 | [8] -0.003 | [9] 0.176 | [10] 0.07

RABEP1 (UniProt Q15276)
inactive: [1] 0.005 | [2] 0.019 | [3] 0.014 | [4] -0.023 | [5] -0.006 | [6] -0.015 | [7] -0.023 | [8] -0.009 | [9] -0.005 | [10] 0.004

QPRT (UniProt Q15274)
inactive: [1] 0.041 | [2] 0.02 | [3] 0.012 | [4] -0.003 | [5] -0.016 | [6] -0.003 | [7] -0.003 | [8] -0.012 | [9] 0.026 | [10] 0.027

RAB18 isoform 2 (UniProt Q9NP72)
inactive: [1] -0.037 | [2] 0.021 | [3] 0.008 | [4] -0.013 | [5] -0.058 | [6] 0.028 | [7] -0.088 | [8] -0.034 | [9] -0.032 | [10] -0.021

RABGAP1 (UniProt Q9Y3P9)
inactive: [1] 0.003 | [2] 0.048 | [3] 0.012 | [4] 0.024 | [5] 0.007 | [6] 0 | [7] -0.018 | [8] 0.017 | [9] -0.03 | [10] 0.008

RAD21 (UniProt O60216)
inactive: [1] -0.049 | [2] 0.028 | [3] -0.032 | [4] 0.015 | [5] -0.003 | [6] 0.019 | [7] 0.002 | [8] -0.01 | [9] -0.001 | [10] -0.004

RABGEF1 isoform 3 (UniProt Q9UJ41)
inactive: [1] -0.032 | [2] 0.047 | [3] -0.02 | [4] -0.031 | [5] -0.033 | [6] 0.012 | [7] -0.017 | [8] 0.041 | [9] -0.019 | [10] 0.006

RAB11B (UniProt Q15907)
inactive: [1] 0.012 | [2] 0.003 | [3] 0.017 | [4] 0.005 | [5] 0.013 | [6] -0.018 | [7] -0.045 | [8] -0.016 | [9] -0.004 | [10] 0.012

RACGAP1 (UniProt Q9H0H5)
inactive: [1] 0.032 | [2] 0.02 | [3] 0.025 | [4] -0.015 | [5] -0.022 | [6] 0.022 | [7] -0.023 | [8] -0.035 | [9] 0.025 | [10] -0.005

RAB2B (UniProt Q8WUD1)
inactive: [1] 0.015 | [2] -0.026 | [3] 0.014 | [4] 0.018 | [5] 0.029 | [6] 0.007 | [7] 0.006 | [8] -0.001 | [9] 0.027 | [10] 0.015

QTRT1 (UniProt Q9BXR0)
inactive: [1] -0.029 | [2] -0.044 | [3] -0.009 | [4] 0.022 | [5] 0.003 | [6] 0.034 | [7] -0.036 | [8] 0.011 | [9] -0.005 | [10] 0.018

RAB3IL1 (UniProt E9PK89)
inactive: [1] -0.016 | [2] -0.075 | [3] 0.124 | [4] 0.013 | [5] -0.048 | [6] -0.04 | [7] 0.093 | [8] -0.034 | [9] -0.12 | [10] 0.109

RAB11A (UniProt P62491)
inactive: [1] 0.009 | [2] -0.078 | [3] 0.017 | [4] 0.01 | [5] -0.027 | [6] -0.018 | [7] 0.07 | [8] 0.047 | [9] 0.033 | [10] 0.03

QRSL1 (UniProt Q9H0R6)
inactive: [1] -0.01 | [2] -0.003 | [3] 0.004 | [4] -0.14 | [5] -0.111 | [6] 0.002 | [7] 0.116 | [8] -0.017 | [9] 0.022 | [10] -0.01

Reprinted at random: 2 records from the list, in no set order.
QRSL1 (UniProt Q9H0R6)
inactive: [1] -0.01 | [2] -0.003 | [3] 0.004 | [4] -0.14 | [5] -0.111 | [6] 0.002 | [7] 0.116 | [8] -0.017 | [9] 0.022 | [10] -0.01

QTRT1 (UniProt Q9BXR0)
inactive: [1] -0.029 | [2] -0.044 | [3] -0.009 | [4] 0.022 | [5] 0.003 | [6] 0.034 | [7] -0.036 | [8] 0.011 | [9] -0.005 | [10] 0.018

Following part.

RALB isoform 2 (UniProt P11234)
inactive: [1] -0.01 | [2] -0.094 | [3] 0.009 | [4] -0.01 | [5] -0.002 | [6] 0.016 | [7] -0.058 | [8] 0.009 | [9] -0.005 | [10] 0.046
